Results deposited as PubChem BioAssay AID1259282 (Sanger Institute, 2017)

- Assay: 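Kinase knock-downs that work with targeted colorectal cancer drugs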 (primary screen)
- Cell system: DIFI human colorectal cancer cell line
- Reagents: siRNA pool against human genes
- Treatment: anchor drug at a mild dose (BYL719 1 µM, cetuximab 5 µg/ml, trametinib 10 nM) or DMSO vehicle; exposure time not given
- Measured: 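Viability relative to non-targeting pool wells, replicate mean, in DMSO or low-dose BYL719, cetuximab or trametinib; robust z-score without drug; synergy score per drug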
- Direction: robust z-score, knock-down alone: higher = more viable cells than typical knock-down; viability, knock-down alone: higher = more viable cells; synergy score with trametinib and synergy score with cetuximab and synergy score with BYL719: higher = stronger combined killing with drug
- Call rule: 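a knock-down is called essential if its DMSO robust z-score is under -3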
- Meaning of the calls: active = essential (knock-down alone, z below -3); inactive = not essential
Here is one part, drawn at random, of 794 reagents tested. 11 of them (1.4%) were called active. 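Calls flag knock-downs that lower viability without drug; drug synergy appears only in the synergy scores; exposure time not stated.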 Entries without a mark were called inactive. No viability above 1 is reported: the scale is capped. Not given: the amount of reagent, the time to read-out.

Target gene,"robust z-score, knock-down alone","viability, knock-down alone (fraction of control)",synergy score with trametinib,synergy score with cetuximab,synergy score with BYL719
MAPK8,0.715,1,-0.0979,0.0492,-0.203
SGK2,0.539,0.974,0.0238,0.0325,-0.136
TAOK1,0.567,0.978,-0.0555,-0.0711,-0.376
GK,0.715,1,0.0845,-0.042,-0.186
NME5,0.715,1,0.16,0.0136,-0.32
TBK1,0.417,0.957,0.138,0.0608,-0.0489
TCF12,0.224,0.929,0.00572,-0.0885,-0.0748
BRDT,0.715,1,0.0605,-0.21,-0.276
AXIN2,0.362,0.949,0.136,-0.00145,-0.103
SRPK2,0.0735,0.907,0.147,0.0482,-0.13
DBF4,0.715,1,-0.235,-0.0947,-0.362
PIP5KL1,-0.607,0.808,-0.00169,-0.0176,-0.24
STK25,0.715,1,0.129,0.0648,-0.165
EPHA6,-0.675,0.798,0.00979,-0.0946,-0.00372
STK17B,0.715,1,0.0535,0.00377,-0.201
STK4,0.715,1,0.126,-0.0172,-0.0904
ITPK1,0.679,0.995,0.0036,-0.0282,-0.213
UCKL1,0.715,1,-0.236,0.0291,-0.166
NUP62,0.715,1,0.308,0.178,-0.259
PIP5K1A,-0.3,0.853,-0.00549,0.0973,-0.0795
MAP2K7,0.635,0.988,0.0937,-0.0595,-0.135
TWF2,-1.42,0.689,0.187,0.0978,-0.0738
GUCY2D,-1.29,0.709,0.13,0.109,0.0268
SCYL3,-1.24,0.716,0.167,0.0982,0.00934
LTK,0.715,1,0.121,-0.0152,-0.28
TAF1L,0.715,1,-0.0876,-0.0236,-0.0852
TSSK6,-0.823,0.777,0.026,-0.0298,-0.0554
PAK1,-0.684,0.797,0.0738,0.104,0.114
GRK6,-0.984,0.753,-0.136,-0.146,-0.346
UHMK1,-1.04,0.745,-0.0523,-0.0281,-0.11
MSR1,-0.602,0.809,0.151,0.0913,0.0601
MUSK,-3.1 (active),0.446,0.0989,0.0558,0.0488
NEK2,0.341,0.946,0.0669,0.0838,0.0579
PANK4,-0.695,0.795,-0.00819,-0.0631,-0.118

2 entries from above, set out differently.
Target gene | robust z-score, knock-down alone | viability, knock-down alone (fraction of control) | synergy score with trametinib | synergy score with cetuximab | synergy score with BYL719
NEK2 | 0.341 | 0.946 | 0.0669 | 0.0838 | 0.0579
PANK4 | -0.695 | 0.795 | -0.00819 | -0.0631 | -0.118
